Literature values, collected in publication PMC8954214, “Preparation, Identification, Molecular Docking Study and Protective Function on HUVECs of Novel ACE Inhibitory Peptides from Protein Hydrolysate of Skipjack Tuna Muscle” (Marine Drugs, 2022).
Values after ≈ are worked out from the molar mass of the structure shown. The structures given here were assigned with low confidence; some may be wrong.

Protein sequences, listed by entry. Tags and fused reporters are not part of them. Residues count along the entry.
UniProt P12822, 34-1310 limits assumed: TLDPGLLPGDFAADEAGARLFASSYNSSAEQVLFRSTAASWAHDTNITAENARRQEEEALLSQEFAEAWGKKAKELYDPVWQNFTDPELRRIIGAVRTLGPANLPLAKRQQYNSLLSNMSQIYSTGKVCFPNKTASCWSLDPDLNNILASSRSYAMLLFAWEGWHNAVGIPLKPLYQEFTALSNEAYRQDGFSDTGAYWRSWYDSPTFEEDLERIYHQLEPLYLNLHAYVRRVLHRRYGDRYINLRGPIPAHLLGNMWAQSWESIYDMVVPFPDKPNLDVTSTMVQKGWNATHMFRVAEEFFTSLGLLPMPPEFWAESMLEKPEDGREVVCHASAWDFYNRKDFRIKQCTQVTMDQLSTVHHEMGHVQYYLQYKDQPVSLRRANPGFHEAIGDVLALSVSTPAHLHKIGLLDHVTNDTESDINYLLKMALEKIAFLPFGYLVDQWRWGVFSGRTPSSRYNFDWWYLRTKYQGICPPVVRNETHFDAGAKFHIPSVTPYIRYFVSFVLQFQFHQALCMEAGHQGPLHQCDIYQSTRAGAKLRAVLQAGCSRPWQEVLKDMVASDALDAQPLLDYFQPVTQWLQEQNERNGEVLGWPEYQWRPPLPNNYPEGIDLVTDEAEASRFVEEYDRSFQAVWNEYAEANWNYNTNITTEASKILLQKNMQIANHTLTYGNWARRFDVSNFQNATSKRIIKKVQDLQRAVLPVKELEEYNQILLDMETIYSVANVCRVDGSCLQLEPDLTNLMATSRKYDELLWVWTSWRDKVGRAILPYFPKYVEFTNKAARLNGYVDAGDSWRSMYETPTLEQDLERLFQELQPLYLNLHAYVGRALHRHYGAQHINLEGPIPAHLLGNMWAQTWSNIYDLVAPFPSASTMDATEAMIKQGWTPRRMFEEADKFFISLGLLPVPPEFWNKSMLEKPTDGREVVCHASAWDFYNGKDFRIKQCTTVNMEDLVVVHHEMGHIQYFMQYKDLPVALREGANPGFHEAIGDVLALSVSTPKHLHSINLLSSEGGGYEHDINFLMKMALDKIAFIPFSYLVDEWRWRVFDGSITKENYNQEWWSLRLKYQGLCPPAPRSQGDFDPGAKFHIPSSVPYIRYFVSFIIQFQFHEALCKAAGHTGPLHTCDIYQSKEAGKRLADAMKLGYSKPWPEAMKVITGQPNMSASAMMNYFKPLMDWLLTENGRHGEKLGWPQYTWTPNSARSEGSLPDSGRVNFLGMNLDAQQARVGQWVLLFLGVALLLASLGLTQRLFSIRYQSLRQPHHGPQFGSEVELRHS

Assays:
ACE [1] = molecular target: T1, ACE (Oryctolagus cuniculus, UniProt P12822); conditions: docking; cited from earlier work
ACE [2] = molecular target: T1, ACE; conditions: Antarctic krill peptides; cited from earlier work
HUVECs = conditions: cited from earlier work
ET-1 = conditions: from Antarctic krill; cited from earlier work

With `NCCCC[C@H](NC(=O)[C@H](CO)NC(=O)[C@@H](N)Cc1ccc(O)cc1)C(=O)O` as the molecule, how does the “affinity with ACE” value (ACE [1]) read?
Its value is -7.9 kcal/mol.

For `NCCCC[C@H](NC(=O)[C@H](CCC(N)=O)NC(=O)[C@@H](N)Cc1ccccc1)C(=O)O`, which IC50 (ACE [2]) is on record?
The IC50 was 1760 µg/mL (≈ 4.18 mM).

And the “NO production of HUVEC” value (HUVECs)?
The value was “increasing the NO production”.

What about the ET-1 content (ET-1) of the same molecule?
Its ET-1 content is “reducing ET-1 content”.
